In paper PMC11311430:
Results are given in words; binding and its absence hold for the method and conditions named. In cells and extracts the contact can be indirect. Some results given as binding are weak or reduced against the parent protein; the word gives no strength.

By UniProt entry, the sequences of proteins in these tests, tags left out. Residues count along the entry.
UniProt P15502, residues 27-786: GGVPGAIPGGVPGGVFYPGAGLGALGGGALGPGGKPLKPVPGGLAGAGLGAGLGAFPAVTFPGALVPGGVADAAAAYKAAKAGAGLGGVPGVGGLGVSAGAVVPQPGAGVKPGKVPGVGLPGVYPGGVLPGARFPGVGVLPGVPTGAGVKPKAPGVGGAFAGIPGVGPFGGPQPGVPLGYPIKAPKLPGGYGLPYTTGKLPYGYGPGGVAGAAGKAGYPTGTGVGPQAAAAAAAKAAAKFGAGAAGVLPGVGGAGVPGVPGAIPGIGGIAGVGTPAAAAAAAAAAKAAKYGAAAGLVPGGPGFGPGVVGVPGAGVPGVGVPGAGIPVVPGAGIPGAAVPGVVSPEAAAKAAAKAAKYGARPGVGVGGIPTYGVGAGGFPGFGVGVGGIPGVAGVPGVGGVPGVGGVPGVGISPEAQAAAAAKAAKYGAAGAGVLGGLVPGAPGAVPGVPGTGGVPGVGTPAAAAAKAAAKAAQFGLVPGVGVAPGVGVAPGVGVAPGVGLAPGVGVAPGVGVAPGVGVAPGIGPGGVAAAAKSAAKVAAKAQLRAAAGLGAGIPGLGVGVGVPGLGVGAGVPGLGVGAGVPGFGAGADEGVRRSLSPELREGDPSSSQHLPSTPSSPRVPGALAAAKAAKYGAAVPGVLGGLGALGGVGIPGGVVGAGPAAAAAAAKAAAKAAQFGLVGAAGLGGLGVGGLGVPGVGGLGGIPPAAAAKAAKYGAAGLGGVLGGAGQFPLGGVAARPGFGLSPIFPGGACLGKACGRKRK
UniProt P35555, residues 45-2731: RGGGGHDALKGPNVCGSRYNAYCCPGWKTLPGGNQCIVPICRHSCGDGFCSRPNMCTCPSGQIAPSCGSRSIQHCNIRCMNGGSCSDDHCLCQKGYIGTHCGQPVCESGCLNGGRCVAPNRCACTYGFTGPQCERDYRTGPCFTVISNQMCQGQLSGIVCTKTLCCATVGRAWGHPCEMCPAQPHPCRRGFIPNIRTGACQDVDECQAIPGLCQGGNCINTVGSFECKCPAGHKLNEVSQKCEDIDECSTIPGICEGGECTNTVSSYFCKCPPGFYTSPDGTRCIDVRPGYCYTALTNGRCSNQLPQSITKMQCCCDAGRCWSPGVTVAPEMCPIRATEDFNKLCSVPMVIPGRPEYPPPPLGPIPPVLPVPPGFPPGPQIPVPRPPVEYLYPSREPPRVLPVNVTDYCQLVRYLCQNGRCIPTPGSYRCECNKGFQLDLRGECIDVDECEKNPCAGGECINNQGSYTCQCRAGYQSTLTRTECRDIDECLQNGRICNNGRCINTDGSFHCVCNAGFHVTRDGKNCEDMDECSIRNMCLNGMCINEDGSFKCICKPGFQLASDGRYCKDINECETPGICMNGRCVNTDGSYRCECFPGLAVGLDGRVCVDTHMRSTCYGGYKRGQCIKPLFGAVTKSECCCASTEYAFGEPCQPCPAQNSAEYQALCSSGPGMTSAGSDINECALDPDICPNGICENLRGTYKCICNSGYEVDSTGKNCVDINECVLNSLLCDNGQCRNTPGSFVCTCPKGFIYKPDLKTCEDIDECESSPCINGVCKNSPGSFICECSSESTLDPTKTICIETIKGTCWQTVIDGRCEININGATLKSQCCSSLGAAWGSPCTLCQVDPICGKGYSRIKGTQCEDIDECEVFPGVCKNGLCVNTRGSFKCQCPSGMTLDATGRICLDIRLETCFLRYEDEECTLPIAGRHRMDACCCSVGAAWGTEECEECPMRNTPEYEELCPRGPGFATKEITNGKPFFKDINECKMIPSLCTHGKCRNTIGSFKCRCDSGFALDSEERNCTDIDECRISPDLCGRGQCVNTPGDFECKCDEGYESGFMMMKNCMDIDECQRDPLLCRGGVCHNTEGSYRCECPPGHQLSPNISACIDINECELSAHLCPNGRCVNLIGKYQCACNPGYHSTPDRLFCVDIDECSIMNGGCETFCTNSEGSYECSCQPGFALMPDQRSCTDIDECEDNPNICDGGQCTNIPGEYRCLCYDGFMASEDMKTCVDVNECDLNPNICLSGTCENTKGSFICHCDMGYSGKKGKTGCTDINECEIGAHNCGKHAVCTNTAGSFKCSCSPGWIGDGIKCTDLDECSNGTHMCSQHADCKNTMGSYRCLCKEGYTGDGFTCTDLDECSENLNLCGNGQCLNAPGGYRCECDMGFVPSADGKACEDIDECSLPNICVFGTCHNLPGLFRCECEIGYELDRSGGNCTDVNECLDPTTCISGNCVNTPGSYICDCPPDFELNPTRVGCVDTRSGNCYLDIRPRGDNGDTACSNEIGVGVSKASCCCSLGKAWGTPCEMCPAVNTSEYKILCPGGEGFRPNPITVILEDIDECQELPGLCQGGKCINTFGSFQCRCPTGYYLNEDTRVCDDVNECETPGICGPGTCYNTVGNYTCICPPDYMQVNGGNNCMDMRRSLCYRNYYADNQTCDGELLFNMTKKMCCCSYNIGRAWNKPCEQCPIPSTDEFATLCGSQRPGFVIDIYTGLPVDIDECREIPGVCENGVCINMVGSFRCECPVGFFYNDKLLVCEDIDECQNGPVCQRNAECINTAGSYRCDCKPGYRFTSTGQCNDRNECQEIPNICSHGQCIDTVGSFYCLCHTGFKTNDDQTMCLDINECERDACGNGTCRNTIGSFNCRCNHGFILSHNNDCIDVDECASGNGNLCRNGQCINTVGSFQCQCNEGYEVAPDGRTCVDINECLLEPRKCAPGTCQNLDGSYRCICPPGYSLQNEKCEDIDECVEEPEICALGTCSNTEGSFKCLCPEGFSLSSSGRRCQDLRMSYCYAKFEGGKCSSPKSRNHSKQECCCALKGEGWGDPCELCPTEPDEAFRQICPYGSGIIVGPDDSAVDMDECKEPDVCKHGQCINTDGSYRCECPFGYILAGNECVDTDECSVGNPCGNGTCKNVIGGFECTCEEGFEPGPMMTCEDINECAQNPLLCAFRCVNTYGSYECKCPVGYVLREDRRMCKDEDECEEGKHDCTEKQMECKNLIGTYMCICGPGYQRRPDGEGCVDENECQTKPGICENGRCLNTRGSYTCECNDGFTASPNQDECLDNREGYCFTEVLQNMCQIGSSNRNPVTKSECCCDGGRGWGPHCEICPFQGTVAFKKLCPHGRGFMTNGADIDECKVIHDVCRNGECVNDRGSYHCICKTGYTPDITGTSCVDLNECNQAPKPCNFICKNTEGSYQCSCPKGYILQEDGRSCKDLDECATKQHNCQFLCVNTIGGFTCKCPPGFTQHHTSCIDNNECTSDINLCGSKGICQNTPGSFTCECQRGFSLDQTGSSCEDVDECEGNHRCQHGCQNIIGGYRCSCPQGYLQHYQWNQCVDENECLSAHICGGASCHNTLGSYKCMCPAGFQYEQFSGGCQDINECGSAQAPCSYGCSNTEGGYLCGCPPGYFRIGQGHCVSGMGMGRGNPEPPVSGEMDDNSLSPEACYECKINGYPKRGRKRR
UniProt Q61554, residues 45-2733: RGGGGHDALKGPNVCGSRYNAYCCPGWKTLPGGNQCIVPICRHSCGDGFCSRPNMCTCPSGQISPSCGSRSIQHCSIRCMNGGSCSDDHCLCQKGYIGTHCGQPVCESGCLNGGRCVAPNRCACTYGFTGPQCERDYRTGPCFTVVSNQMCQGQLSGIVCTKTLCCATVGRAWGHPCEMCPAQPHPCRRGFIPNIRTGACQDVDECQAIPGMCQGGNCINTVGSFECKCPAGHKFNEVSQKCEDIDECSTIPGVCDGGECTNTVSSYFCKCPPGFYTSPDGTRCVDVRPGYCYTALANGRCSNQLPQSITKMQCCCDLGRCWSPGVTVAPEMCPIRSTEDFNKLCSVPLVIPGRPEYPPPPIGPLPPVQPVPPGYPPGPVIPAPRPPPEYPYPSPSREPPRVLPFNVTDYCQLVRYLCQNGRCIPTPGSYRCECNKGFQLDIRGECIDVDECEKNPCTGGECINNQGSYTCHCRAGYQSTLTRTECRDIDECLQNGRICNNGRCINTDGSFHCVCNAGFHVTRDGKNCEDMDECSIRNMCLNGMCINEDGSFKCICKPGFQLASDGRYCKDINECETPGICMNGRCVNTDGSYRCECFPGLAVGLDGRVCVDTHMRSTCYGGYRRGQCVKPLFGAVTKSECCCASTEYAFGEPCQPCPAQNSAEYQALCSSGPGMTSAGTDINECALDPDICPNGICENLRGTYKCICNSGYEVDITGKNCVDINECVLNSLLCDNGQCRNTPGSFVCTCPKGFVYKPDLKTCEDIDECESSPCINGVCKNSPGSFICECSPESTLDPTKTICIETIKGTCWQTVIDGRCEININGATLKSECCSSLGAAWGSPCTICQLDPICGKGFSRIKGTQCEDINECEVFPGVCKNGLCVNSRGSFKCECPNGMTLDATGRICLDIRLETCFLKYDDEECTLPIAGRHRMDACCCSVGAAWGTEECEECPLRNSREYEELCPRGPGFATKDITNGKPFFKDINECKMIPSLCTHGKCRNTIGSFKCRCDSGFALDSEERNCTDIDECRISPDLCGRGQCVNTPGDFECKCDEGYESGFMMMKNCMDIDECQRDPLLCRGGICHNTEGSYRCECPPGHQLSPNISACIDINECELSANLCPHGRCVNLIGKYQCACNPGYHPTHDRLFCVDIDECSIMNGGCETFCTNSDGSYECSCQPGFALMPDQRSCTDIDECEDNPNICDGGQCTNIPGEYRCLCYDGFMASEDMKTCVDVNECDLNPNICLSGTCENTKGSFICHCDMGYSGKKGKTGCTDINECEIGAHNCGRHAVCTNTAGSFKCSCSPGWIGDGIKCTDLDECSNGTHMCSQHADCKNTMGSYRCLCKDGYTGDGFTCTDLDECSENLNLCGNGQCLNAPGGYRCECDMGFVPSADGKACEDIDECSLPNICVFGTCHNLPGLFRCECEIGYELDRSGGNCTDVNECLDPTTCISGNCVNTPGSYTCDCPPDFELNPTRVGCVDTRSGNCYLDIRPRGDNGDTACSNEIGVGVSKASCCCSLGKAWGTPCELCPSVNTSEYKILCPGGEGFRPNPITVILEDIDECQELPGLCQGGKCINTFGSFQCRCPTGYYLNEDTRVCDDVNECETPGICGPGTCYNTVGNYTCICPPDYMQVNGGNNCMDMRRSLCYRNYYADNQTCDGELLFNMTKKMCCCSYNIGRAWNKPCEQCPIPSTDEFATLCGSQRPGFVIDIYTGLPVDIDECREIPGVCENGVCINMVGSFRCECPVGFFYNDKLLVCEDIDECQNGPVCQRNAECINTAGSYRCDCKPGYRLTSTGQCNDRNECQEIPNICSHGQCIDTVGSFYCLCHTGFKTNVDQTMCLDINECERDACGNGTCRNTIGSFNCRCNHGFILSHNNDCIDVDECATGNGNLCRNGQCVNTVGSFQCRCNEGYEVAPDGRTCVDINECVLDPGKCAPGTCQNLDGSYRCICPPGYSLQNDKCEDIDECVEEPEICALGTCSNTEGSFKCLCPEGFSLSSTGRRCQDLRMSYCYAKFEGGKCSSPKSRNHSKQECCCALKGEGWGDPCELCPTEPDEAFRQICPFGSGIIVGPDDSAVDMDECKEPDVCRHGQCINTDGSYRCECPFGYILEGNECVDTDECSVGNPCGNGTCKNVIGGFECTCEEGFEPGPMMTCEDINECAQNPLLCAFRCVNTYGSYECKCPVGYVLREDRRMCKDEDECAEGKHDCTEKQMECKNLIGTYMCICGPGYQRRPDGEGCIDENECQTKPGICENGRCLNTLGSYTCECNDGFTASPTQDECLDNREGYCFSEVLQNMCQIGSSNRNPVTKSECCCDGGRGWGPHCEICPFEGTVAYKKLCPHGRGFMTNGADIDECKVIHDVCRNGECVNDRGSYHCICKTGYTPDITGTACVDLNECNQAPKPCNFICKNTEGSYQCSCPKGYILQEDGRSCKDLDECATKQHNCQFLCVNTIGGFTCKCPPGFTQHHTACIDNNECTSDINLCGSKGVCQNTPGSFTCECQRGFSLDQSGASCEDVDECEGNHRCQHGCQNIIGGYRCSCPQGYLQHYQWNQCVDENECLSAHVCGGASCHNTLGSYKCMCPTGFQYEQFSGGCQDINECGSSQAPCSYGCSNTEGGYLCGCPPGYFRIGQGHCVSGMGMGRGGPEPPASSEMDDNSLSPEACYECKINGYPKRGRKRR

Key:
[1] = molecular target: elastin (human aorta) (human (endogenous in ascending aorta)) (UniProt P15502); assay: proximity ligation; in situ PLA on paraffin sections of healthy human (Ctrl) ascending aorta; anti-elastin and anti-fibrillin-1 antibodies
[2] = molecular target: T1, elastin (mouse aorta) (mouse (endogenous in thoracic aorta)) (UniProt P54320); assay: proximity ligation; in situ PLA (Duo-link kit) on 5 µm paraffin sections of Myh11-CreERT2 (WT, tamoxifen-injected) mouse descending thoracic aorta; rabbit anti-elastin and mouse anti-fibrillin-1 antibodies at 4 °C overnight
T1 sequence: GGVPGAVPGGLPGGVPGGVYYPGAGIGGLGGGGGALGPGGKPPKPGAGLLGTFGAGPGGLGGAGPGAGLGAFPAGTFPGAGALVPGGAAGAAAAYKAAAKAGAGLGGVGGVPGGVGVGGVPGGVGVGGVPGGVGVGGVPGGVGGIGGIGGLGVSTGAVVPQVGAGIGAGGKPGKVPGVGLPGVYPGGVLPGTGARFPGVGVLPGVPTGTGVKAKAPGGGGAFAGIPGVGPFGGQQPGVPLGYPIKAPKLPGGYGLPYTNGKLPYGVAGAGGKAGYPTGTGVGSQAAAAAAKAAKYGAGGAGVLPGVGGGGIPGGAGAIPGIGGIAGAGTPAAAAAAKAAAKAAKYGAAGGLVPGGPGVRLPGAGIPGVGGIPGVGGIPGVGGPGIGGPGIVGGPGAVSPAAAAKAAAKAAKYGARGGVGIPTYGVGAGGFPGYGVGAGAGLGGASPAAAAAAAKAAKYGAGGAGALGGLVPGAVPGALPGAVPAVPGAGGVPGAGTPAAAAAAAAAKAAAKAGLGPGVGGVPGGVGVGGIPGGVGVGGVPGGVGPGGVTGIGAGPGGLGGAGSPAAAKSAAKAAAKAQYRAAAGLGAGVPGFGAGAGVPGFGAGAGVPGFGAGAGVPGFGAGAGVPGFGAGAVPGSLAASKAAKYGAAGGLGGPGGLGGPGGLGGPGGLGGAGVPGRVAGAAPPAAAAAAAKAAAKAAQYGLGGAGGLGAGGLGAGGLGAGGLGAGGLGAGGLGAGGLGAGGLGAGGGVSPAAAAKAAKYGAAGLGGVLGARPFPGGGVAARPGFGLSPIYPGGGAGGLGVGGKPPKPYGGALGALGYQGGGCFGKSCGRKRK

[3] = molecular target: T1, elastin (mouse aorta) (mouse (endogenous in thoracic aorta)); assay: co-IP; thoracic aorta tissue of WT and ADAR1sm-/- mice lysed in Co-IP lysis buffer; supernatant incubated overnight at 4 °C with protein A/G-agarose beads carrying normal IgG, elastin or fibrillin-1 antibody; Western blot for fibrillin-1 and elastin

binding [1]	binding [2]	binding [3]	Substance
binds			fibrillin-1 (healthy human aorta) (from UniProt P35555 45-2731)
	binds	binds	fibrillin-1 (mouse aorta) (from UniProt Q61554 45-2733)
